Measured values taken from the supplement of paper PMC12819154, “High-throughput peptide-centric local stability assay extends protein–ligand identification to membrane proteins, tissues and bacteria” (Nature Structural & Molecular Biology, 2025).
The list shows a part of the results. Most values lie at the level of the controls, where differences are scatter.

Sequences of proteins named here, by UniProt entry; tags and fusion partners are left off. A change or cut given only in a name is not applied to a line headed by its entry.
UniProt Q2NL68: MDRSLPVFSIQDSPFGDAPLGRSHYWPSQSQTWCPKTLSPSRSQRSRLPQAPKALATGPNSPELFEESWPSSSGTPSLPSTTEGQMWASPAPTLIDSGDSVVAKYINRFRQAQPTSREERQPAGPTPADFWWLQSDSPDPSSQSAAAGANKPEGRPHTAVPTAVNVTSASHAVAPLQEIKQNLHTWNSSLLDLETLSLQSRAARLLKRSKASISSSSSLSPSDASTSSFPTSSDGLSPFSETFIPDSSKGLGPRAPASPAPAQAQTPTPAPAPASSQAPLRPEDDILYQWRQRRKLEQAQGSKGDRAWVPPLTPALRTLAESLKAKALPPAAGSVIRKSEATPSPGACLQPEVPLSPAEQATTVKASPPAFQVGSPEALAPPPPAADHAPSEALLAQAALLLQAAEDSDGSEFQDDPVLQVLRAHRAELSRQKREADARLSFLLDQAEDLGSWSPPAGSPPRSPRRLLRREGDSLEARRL
UniProt Q15019: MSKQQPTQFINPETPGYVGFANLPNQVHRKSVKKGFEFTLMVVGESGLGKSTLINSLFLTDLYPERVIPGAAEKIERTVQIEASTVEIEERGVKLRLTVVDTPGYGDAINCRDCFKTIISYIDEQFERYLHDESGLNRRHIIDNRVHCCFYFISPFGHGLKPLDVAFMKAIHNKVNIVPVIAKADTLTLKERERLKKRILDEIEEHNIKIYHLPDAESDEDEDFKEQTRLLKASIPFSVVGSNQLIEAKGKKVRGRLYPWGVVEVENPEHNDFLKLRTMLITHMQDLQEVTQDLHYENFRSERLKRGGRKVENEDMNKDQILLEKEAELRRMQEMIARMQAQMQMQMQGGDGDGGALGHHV
UniProt Q16401: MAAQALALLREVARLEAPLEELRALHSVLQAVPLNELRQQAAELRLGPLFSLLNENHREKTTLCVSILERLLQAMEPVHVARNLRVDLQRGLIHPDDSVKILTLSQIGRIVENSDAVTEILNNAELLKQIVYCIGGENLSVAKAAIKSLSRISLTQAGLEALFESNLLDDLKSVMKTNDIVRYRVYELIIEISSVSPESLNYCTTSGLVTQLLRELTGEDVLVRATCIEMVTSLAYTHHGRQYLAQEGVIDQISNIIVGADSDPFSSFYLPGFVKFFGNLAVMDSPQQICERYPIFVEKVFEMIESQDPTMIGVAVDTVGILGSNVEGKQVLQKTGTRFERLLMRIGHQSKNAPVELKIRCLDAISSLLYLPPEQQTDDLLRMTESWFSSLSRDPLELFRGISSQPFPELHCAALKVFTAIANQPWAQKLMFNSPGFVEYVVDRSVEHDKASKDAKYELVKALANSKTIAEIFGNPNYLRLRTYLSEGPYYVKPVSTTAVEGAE
UniProt Q15928: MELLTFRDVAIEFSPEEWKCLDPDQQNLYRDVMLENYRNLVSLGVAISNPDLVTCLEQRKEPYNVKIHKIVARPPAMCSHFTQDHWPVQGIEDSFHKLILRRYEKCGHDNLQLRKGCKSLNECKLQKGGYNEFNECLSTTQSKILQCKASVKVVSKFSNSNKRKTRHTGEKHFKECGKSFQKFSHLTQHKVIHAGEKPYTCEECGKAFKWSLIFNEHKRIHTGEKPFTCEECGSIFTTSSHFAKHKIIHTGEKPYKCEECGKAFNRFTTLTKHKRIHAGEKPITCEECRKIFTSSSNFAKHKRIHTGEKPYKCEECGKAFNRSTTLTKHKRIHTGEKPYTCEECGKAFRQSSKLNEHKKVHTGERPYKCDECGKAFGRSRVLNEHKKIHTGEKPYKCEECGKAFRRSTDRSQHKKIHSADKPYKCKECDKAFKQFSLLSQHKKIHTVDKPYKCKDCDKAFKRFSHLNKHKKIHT
UniProt Q15283: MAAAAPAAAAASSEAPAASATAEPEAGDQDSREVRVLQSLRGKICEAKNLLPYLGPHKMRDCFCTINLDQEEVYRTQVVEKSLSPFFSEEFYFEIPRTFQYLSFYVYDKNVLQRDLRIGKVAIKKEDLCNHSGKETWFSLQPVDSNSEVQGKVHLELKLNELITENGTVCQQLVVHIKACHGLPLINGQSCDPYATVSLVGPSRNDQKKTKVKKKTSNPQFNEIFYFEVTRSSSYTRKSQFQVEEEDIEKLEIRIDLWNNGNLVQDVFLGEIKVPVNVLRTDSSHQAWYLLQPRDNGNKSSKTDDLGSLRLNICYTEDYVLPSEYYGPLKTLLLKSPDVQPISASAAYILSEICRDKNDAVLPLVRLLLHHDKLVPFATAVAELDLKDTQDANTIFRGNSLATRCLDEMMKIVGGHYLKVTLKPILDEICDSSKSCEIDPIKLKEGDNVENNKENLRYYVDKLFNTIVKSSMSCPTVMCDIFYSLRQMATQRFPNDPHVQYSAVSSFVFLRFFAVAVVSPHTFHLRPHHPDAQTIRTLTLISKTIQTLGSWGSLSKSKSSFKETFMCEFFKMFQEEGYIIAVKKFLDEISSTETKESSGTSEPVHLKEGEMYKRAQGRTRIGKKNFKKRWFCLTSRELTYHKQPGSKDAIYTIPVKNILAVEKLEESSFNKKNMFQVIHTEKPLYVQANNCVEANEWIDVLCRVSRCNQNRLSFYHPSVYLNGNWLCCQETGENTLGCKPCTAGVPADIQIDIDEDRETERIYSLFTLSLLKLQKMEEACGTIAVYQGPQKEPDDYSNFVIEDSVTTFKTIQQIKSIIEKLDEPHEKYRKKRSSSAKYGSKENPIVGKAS
UniProt Q15393: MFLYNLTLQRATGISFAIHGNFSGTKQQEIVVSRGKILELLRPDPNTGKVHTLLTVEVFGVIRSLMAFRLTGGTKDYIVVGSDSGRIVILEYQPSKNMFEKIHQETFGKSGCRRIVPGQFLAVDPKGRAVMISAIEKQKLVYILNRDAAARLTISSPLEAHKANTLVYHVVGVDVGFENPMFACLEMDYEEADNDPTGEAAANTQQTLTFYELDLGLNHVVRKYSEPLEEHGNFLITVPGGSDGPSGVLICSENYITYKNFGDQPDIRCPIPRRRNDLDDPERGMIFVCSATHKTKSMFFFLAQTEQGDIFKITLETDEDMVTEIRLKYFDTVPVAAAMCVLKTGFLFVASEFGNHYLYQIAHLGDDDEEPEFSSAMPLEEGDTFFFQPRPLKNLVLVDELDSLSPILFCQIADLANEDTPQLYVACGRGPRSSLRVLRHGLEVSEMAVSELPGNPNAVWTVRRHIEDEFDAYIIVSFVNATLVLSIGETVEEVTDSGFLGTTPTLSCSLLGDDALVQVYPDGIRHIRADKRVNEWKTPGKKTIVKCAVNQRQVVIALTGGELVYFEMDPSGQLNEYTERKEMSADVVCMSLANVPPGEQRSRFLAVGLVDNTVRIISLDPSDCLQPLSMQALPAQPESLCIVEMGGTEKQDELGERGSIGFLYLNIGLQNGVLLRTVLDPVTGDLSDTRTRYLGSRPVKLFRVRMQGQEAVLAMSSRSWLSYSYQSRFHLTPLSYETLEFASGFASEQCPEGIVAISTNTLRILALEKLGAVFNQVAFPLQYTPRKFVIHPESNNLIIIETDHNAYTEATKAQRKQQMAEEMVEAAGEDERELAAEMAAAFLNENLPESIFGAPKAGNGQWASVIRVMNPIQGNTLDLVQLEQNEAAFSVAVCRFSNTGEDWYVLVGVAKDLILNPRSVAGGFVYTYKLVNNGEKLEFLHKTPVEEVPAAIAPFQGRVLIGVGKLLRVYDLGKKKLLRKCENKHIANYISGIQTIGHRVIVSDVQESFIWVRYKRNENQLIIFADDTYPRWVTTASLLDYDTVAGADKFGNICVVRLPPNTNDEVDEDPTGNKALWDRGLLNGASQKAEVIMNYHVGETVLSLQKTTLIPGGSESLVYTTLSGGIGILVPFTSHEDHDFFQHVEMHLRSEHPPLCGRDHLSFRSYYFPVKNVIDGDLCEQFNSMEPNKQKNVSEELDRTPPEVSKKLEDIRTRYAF
UniProt Q15599: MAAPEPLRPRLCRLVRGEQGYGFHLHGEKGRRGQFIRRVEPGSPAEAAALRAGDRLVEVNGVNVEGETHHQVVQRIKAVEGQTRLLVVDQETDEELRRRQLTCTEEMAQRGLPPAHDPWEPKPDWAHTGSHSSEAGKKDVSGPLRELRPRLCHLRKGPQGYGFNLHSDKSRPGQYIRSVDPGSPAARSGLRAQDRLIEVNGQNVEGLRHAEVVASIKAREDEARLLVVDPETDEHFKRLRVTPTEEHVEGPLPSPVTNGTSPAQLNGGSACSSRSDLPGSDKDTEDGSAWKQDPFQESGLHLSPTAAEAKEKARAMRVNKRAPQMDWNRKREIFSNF
UniProt Q2NKX9: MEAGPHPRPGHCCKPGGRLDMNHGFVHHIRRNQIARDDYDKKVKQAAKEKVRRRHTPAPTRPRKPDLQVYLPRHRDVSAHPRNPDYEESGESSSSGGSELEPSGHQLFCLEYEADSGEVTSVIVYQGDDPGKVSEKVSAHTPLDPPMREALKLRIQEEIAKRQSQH

The targets below were run with Cc1nc(Nc2ncc(C(=O)Nc3c(C)cccc3Cl)s2)cc(N2CCN(CCO)CC2)n1 [dasatinib] (assay: log2 fold change of tryptic peptide abundance, ligand vs vehicle (limited proteolysis) (log2 ratio); higher = more trypsin-susceptible (destabilized)). Conditions: ligand concentration: 5 uM; sample: K562 cleared lysate.

Row | Target | log2 fold change
1 | PROSER3 (peptide sequence: KLEQAQGSKGDR, peptide start residue: 295) (UniProt Q2NL68) | 0.532
2 | UniProt Q15019 (peptide sequence: YLHDESGLNR, peptide start residue: 129) | -0.304
3 | PSMD5 (peptide sequence: YPIFVEK, peptide start residue: 293) (UniProt Q16401) | -0.194
4 | UniProt Q15928 (peptide sequence: CGHDNLQLR, peptide start residue: 30) | -0.303
5 | RASA2 (peptide sequence: WFCLTSR, peptide start residue: 630) (UniProt Q15283) | -0.562
6 | SF3B3 (peptide sequence: SEHPPLCGR, peptide start residue: 1150) (UniProt Q15393) | 0.0969
7 | SLC9A3R2 (peptide sequence: AAPEPLRPR, peptide start residue: 2) (UniProt Q15599) | 0.199
8 | C2orf68 (peptide sequence: HTPAPTRPR, peptide start residue: 55) (UniProt Q2NKX9) | 0.379

For reference, some entries already given.
Row | Target | log2 fold change
3 | PSMD5 (peptide sequence: YPIFVEK, peptide start residue: 293) (UniProt Q16401) | -0.194
4 | UniProt Q15928 (peptide sequence: CGHDNLQLR, peptide start residue: 30) | -0.303
